PubChem BioAssay AID1259405 – NCATS – 2018

Screen: 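Silenced genes that increase secreted GFP made by CHO cells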 (primary screen)
Cell system: Chinese hamster CHO-K1 ovary cells with stable secreted eGFP expression
Reagent: single siRNA against mouse genes, 0.8 pmol siRNA per well (2 µl of 400 nM stock)
Duration: 3 days
Measurement: 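Percent of the per-plate non-targeting control median for intracellular GFP per well by laser scanning cytometry and for cell viability by ATP luminescence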
Scale: GFP, % of control: higher = more GFP per well, higher productivity; viability (ATP), % of control: higher = more viable cells (more ATP)
Call rule: 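a knock-down is called active if GFP reaches 120% or more of non-targeting control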
The whole screen tested about 50,000 reagents; below is a random part of them. About 4,000 of all reagents (8%) count as active. 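Mouse siRNA library applied to hamster cells; one well for each siRNA.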 The numbers tell different reagents against one gene apart.

St18 (suppression of tumorigenicity 18) #1: GFP, % of control = 90.6; viability (ATP), % of control = 101; outcome = inactive
St18 (suppression of tumorigenicity 18) #2: GFP, % of control = 132; viability (ATP), % of control = 97.3; outcome = active
St18 (suppression of tumorigenicity 18) #3: GFP, % of control = 63.4; viability (ATP), % of control = 74.7; outcome = inactive
Xpnpep1 (X-prolyl aminopeptidase (aminopeptidase P) 1, soluble) #1: GFP, % of control = 53.9; viability (ATP), % of control = 48.4; outcome = inactive
Xpnpep1 (X-prolyl aminopeptidase (aminopeptidase P) 1, soluble) #2: GFP, % of control = 48.9; viability (ATP), % of control = 39.8; outcome = inactive
Xpnpep1 (X-prolyl aminopeptidase (aminopeptidase P) 1, soluble) #3: GFP, % of control = 84.9; viability (ATP), % of control = 79.6; outcome = inactive
Bpnt1 (3'(2'), 5'-bisphosphate nucleotidase 1) #1: GFP, % of control = 135; viability (ATP), % of control = 103; outcome = active
Bpnt1 (3'(2'), 5'-bisphosphate nucleotidase 1) #2: GFP, % of control = 73.2; viability (ATP), % of control = 92.4; outcome = inactive
Bpnt1 (3'(2'), 5'-bisphosphate nucleotidase 1) #3: GFP, % of control = 31.9; viability (ATP), % of control = 15.4; outcome = inactive
Fyco1 (FYVE and coiled-coil domain containing 1) #1: GFP, % of control = 71.1; viability (ATP), % of control = 83.6; outcome = inactive
Fyco1 (FYVE and coiled-coil domain containing 1) #2: GFP, % of control = 76.7; viability (ATP), % of control = 30.4; outcome = inactive
Fyco1 (FYVE and coiled-coil domain containing 1) #3: GFP, % of control = 72.9; viability (ATP), % of control = 71; outcome = inactive
Ptdss1 (phosphatidylserine synthase 1) #1: GFP, % of control = 53.5; viability (ATP), % of control = 90.6; outcome = inactive
Ptdss1 (phosphatidylserine synthase 1) #2: GFP, % of control = 62.8; viability (ATP), % of control = 96; outcome = inactive
Ptdss1 (phosphatidylserine synthase 1) #3: GFP, % of control = 76.1; viability (ATP), % of control = 81.8; outcome = inactive
Ddx19b (DEAD box helicase 19b) #1: GFP, % of control = 94.5; viability (ATP), % of control = 52.2; outcome = inactive
Ddx19b (DEAD box helicase 19b) #2: GFP, % of control = 68.9; viability (ATP), % of control = 41.8; outcome = inactive
Ddx19b (DEAD box helicase 19b) #3: GFP, % of control = 73.4; viability (ATP), % of control = 76.1; outcome = inactive
Clns1a (chloride channel, nucleotide-sensitive, 1A) #1: GFP, % of control = 65.6; viability (ATP), % of control = 58.4; outcome = inactive
Clns1a (chloride channel, nucleotide-sensitive, 1A) #2: GFP, % of control = 36.2; viability (ATP), % of control = 26.4; outcome = inactive
Clns1a (chloride channel, nucleotide-sensitive, 1A) #3: GFP, % of control = 81; viability (ATP), % of control = 91.6; outcome = inactive
Fmnl2 (formin-like 2) #1: GFP, % of control = 47.8; viability (ATP), % of control = 71; outcome = inactive
Fmnl2 (formin-like 2) #2: GFP, % of control = 74.5; viability (ATP), % of control = 79.6; outcome = inactive
Fmnl2 (formin-like 2) #3: GFP, % of control = 52.4; viability (ATP), % of control = 73; outcome = inactive
Nelfa (negative elongation factor complex member A, Whsc2) #1: GFP, % of control = 85; viability (ATP), % of control = 78.9; outcome = inactive
Nelfa (negative elongation factor complex member A, Whsc2) #2: GFP, % of control = 89.3; viability (ATP), % of control = 87.7; outcome = inactive
Nelfa (negative elongation factor complex member A, Whsc2) #3: GFP, % of control = 51.3; viability (ATP), % of control = 84.7; outcome = inactive

Records listed so far whose target name starts with D or d (3):
Ddx19b (DEAD box helicase 19b) #1: GFP, % of control = 94.5; viability (ATP), % of control = 52.2; outcome = inactive
Ddx19b (DEAD box helicase 19b) #2: GFP, % of control = 68.9; viability (ATP), % of control = 41.8; outcome = inactive
Ddx19b (DEAD box helicase 19b) #3: GFP, % of control = 73.4; viability (ATP), % of control = 76.1; outcome = inactive

Next reagents follow:
Abca13 (ATP-binding cassette, sub-family A member 13) #1: GFP, % of control = 48.3; viability (ATP), % of control = 53.9; outcome = inactive
Abca13 (ATP-binding cassette, sub-family A member 13) #2: GFP, % of control = 82.6; viability (ATP), % of control = 68; outcome = inactive
Abca13 (ATP-binding cassette, sub-family A member 13) #3: GFP, % of control = 82.3; viability (ATP), % of control = 94.3; outcome = inactive
Ints10 (integrator complex subunit 10) #1: GFP, % of control = 75.3; viability (ATP), % of control = 42; outcome = inactive
Ints10 (integrator complex subunit 10) #2: GFP, % of control = 76.1; viability (ATP), % of control = 50; outcome = inactive
Ints10 (integrator complex subunit 10) #3: GFP, % of control = 82.6; viability (ATP), % of control = 103; outcome = inactive
Fem1a (fem 1 homolog a) #1: GFP, % of control = 74.3; viability (ATP), % of control = 92.4; outcome = inactive
Fem1a (fem 1 homolog a) #2: GFP, % of control = 68.4; viability (ATP), % of control = 107; outcome = inactive
Fem1a (fem 1 homolog a) #3: GFP, % of control = 103; viability (ATP), % of control = 65.8; outcome = inactive
Ccdc9b (coiled-coil domain containing 9B) #1: GFP, % of control = 43.5; viability (ATP), % of control = 47.7; outcome = inactive
Ccdc9b (coiled-coil domain containing 9B) #2: GFP, % of control = 29.2; viability (ATP), % of control = 24.7; outcome = inactive
Ccdc9b (coiled-coil domain containing 9B) #3: GFP, % of control = 47.3; viability (ATP), % of control = 85.4; outcome = inactive
Sytl1 (synaptotagmin-like 1) #1: GFP, % of control = 70.9; viability (ATP), % of control = 143; outcome = inactive
Sytl1 (synaptotagmin-like 1) #2: GFP, % of control = 93.3; viability (ATP), % of control = 94.7; outcome = inactive
